Results: paper PMC5903867
These are yes or no findings as the source states them, for the method shown. Some results given as binding are weak or reduced against the parent protein; the word gives no strength.

Tests used:
ExbB (Escherichia coli) [1] = biological target: T1, ExbB (Escherichia coli) (UniProt P0ABU7); assay: SDS-PAGE of washed 2D crystals; 2D crystals in lipid bilayers centrifuged, pellet washed twice with buffer, dissolved in SDS sample buffer and run on a polyacrylamide gel; both purified
T1 sequence: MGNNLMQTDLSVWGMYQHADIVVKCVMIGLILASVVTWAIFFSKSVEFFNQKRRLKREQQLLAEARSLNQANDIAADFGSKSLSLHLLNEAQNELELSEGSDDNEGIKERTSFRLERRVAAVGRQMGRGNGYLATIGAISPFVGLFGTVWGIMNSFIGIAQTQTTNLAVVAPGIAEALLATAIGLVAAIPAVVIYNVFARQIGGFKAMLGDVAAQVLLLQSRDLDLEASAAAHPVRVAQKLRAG

ExbB (Escherichia coli) [2] = biological target: T1, ExbB (Escherichia coli); assay: SDS-PAGE and peptide mass fingerprinting of washed 3D crystals; crystals grown at pH 9.0 collected with a loop, washed with crystallization buffer, dissolved in SDS sample buffer; bands digested with trypsin, MALDI TOF/TOF and/or LC MS/MS, Mascot; both purified

- binding (ExbB (Escherichia coli) [1]): binds
- binding (ExbB (Escherichia coli) [2]): binds
B1: ExbD (protein, UniProt P0ABV2 1-141)
chain: MAMHLNENLDDNGEMHDINVTPFIDVMLVLLIIFMVAAPLATVDVKVNLPASTSTPQPRPEKPVYLSVKADNSMFIGNDPVTDETMITALNALTEGKKDTTIFFRADKTVDYETLMKVMDTLHQAGYLKIGLVGEETAKAK
